Assay results published in PMC6062506.
These are yes or no findings as the source states them, for the method shown. For some of these results: In cells and extracts the contact can be indirect. Some entries that bind do so weakly or less than the wild type. For some of these results: Where a sequence is shown, tags or fusion partners need not be part of it. Each block holds one molecule with its values, some of them ahead of it.

The chains behind the UniProt entries cited, without tags or fusion partners.
UniProt P09874: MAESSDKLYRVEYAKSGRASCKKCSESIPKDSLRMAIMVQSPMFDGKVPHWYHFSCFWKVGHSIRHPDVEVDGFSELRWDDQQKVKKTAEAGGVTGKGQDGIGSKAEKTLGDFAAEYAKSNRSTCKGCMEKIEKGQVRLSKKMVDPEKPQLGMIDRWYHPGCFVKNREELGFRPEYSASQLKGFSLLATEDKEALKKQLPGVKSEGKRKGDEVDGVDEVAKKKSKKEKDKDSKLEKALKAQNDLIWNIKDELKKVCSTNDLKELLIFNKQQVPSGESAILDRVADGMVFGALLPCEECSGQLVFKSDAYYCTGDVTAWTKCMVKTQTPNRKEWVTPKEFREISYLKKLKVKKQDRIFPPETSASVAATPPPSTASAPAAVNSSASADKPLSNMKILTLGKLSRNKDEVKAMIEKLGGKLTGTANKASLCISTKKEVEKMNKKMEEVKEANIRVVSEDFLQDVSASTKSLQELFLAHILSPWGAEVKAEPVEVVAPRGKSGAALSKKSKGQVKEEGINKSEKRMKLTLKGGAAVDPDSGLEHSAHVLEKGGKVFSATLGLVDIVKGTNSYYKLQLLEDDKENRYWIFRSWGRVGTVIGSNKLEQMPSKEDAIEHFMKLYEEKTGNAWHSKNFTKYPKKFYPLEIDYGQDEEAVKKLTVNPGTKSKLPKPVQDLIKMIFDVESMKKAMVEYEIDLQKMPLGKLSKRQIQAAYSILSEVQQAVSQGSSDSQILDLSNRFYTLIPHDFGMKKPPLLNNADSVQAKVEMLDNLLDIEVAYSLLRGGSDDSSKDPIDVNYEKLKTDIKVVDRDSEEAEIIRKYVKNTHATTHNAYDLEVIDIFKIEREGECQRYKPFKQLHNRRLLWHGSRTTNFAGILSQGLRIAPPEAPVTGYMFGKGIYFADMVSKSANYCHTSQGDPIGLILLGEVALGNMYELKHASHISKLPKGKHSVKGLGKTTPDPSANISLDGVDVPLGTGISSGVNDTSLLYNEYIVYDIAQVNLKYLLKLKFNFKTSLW

Key:
[1] = molecular target: T1, recombinant PXR protein (50 kDa) (UniProt O75469); experiment: far-Western, overlay or dot blot; cell-free; recombinant PXR protein resolved by SDS-PAGE on PVDF membrane; UP-PARP1 or AP-PARP1 as probe, 37 °C for 1 h, Hyb-75 buffer; both purified
T1 sequence: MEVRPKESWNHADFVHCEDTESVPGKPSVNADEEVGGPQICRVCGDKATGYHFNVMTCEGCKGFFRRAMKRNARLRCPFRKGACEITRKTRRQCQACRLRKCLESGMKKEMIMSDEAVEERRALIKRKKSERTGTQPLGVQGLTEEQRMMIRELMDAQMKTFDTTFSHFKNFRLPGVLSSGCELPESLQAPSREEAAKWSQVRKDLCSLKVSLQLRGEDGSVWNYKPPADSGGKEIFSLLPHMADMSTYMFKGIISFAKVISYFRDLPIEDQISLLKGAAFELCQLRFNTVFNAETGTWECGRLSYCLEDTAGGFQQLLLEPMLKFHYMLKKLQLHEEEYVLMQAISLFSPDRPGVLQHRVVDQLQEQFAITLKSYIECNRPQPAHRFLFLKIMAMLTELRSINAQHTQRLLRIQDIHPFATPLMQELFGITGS

[2] = molecular target: T2, EGFP-tagged full-length PXR (human) (UniProt O75469); experiment: co-IP; HepG2 cells co-transfected with Flag-PARP1 and EGFP-PXR (full length or deletion mutants); nuclear extracts; IP with anti-Flag or anti-EGFP at 4 °C overnight, protein-A/G agarose; washed with 50 mM Tris, 150 mM NaCl, 1% NP-40, 1% sodium deoxycholate; western blot; nonspecific IgG as control
T2 sequence: T1 sequence

[3] = molecular target: Flag-tagged full-length PARP1 (human) (UniProt P09874); experiment: as above

binding [1]: binds
Molecule: autopoly(ADP-ribosyl)ated PARP1 (from UniProt P09874 1-1014) (enzyme)

binding [3]: binds
B1: EGFP-tagged full-length PXR (receptor, UniProt O75469 1-434)
chain: T1 sequence

Further lines, the molecule ahead of its results:

Molecule: unpoly(ADP-ribosyl)ated PARP1 (recombinant PARP1 protein) (from UniProt P09874 1-1014) (enzyme)
binding [1]: binds

Molecule: Flag-tagged full-length PARP1 (from UniProt P09874 1-1014) (enzyme)
binding [2]: binds
